According to PMC9976904:
Construct, isoform or probe ends are uncertain for at least one entry. For part of these data: A weaker result is weaker than the reference pair of the same experiment. For part of these data: At least one verdict rests on a figure or table, not on a statement of the authors.

Chains of the proteins cited; added tags and fusions are not shown.
UniProt P60842, whole entry E183Q: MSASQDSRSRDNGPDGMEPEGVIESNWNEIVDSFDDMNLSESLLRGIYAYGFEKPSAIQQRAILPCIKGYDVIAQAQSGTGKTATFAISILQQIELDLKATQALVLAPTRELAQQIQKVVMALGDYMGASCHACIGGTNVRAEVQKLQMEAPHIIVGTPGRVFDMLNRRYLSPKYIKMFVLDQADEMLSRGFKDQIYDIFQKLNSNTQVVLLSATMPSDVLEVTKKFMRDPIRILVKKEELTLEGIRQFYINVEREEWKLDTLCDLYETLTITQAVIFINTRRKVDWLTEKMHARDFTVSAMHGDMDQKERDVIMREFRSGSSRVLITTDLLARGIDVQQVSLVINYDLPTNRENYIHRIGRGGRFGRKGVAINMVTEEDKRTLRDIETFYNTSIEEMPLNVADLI

How the values were obtained:
eIF4A1 + eIF4H = test: fluorescence anisotropy; conditions: 0.5 uM eIF4H, AMPPNP, sequence differences almost abolished; 20 mM HEPES/KOH pH 7.5, 100 mM KCl, 1 mM TCEP, 1% DMSO, 2 mM AMPPNP/MgCl2, 25 C, 60 min; recombinant protein; label: FAM or 5' Dy780
eIF4A1 + eIF4G-MC = test: fluorescence anisotropy; conditions: 0.5 uM eIF4G-MC, AMPPNP, sequence differences almost abolished; 20 mM HEPES/KOH pH 7.5, 100 mM KCl, 1 mM TCEP, 1% DMSO, 2 mM AMPPNP/MgCl2, 25 C, 60 min; recombinant protein; label: FAM or 5' Dy780
[1] = target: eIF4A1 DQAD E183Q (human) (UniProt P60842); test: RNA-binding assay; conditions: no silvestrol, RNA-binding deficiency stated; 20 mM HEPES/KOH pH 7.5, 100 mM KCl, 1 mM TCEP, 1% DMSO, 2 mM AMPPNP/MgCl2, 25 C, 60 min; recombinant protein; protein details: N-terminal 6xHis-SUMO, cleaved; label: FAM or 5' Dy780

AGAGAGAGAGAGAGAGAGAG [AG-RNA (20 nt)]
binding result (eIF4A1 + eIF4H): binds | binding result (eIF4A1 + eIF4G-MC): binds | binding result [1]: binds more weakly
